Laboratory results published in patent US20120315277A1, “Compositions and Methods for the Therapy and Diagnosis of Influenza” (priority 2011, published 2012).
These are yes or no findings as the source states them, for the method shown. Some results given as binding are weak or reduced against the parent protein; the word gives no strength.

Protein sequences, listed by entry. Tags and fused reporters are not part of them.
UniProt P06821: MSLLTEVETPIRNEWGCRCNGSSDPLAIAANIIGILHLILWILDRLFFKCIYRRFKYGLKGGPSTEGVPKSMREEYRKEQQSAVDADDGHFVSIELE

Experiments:
[1] = molecular target: M2 protein of influenza A/Puerto Rico/8/34 (H1N1) on cells (influenza A virus A/Puerto Rico/8/34 (H1N1)) (UniProt P06821); test: FACS on infected MDCK cells
[2] = molecular target: M2 protein of influenza A/Puerto Rico/8/34 (H1N1) on cells (influenza A virus A/Puerto Rico/8/34 (H1N1)) (UniProt P06821); test: FMAT on PR8-infected MDCK cells
[3] = molecular target: M2 protein on influenza A/Puerto Rico/8/34 (H1N1) virus particles (influenza A virus A/Puerto Rico/8/34 (H1N1)) (UniProt P06821); test: ELISA on purified virus (FIG. 14a)
[4] = molecular target: M2 protein on influenza A/Puerto Rico/8/34 (H1N1) virus particles (influenza A virus A/Puerto Rico/8/34 (H1N1)) (UniProt P06821); test: ELISA on PR8 virus, crude supernatants
[5] = molecular target: M2 protein on influenza A/Puerto Rico/8/34 (H1N1) virus particles (influenza A virus A/Puerto Rico/8/34 (H1N1)) (UniProt P06821); test: ELISA on PR8 virus, crude supernatant
[6] = molecular target: M2 protein of influenza A/Puerto Rico/8/34 (H1N1) on cells (influenza A virus A/Puerto Rico/8/34 (H1N1)) (UniProt P06821); test: FACS, transfected 293 cells, 1 µg/mL
[7] = molecular target: M2 protein on influenza A/Puerto Rico/8/34 (H1N1) virus particles (influenza A virus A/Puerto Rico/8/34 (H1N1)) (UniProt P06821); test: ELISA on influenza virus, crude supernatants
[8] = molecular target: M2 protein on influenza A/Puerto Rico/8/34 (H1N1) virus particles (influenza A virus A/Puerto Rico/8/34 (H1N1)) (UniProt P06821); test: ELISA on purified A/Puerto Rico/8/34 virus
[9] = molecular target: M2 protein of influenza A/Puerto Rico/8/34 (H1N1) on cells (influenza A virus A/Puerto Rico/8/34 (H1N1)) (UniProt P06821); test: FACS on MDCK cells infected with A/Puerto Rico/8/34
[10] = molecular target: M2 protein of influenza A/Puerto Rico/8/34 (H1N1) on cells (influenza A virus A/Puerto Rico/8/34 (H1N1)) (UniProt P06821); test: FACS on transfected 293 cells and on infected MDCK cells
[11] = molecular target: M2 protein of influenza A/Puerto Rico/8/34 (H1N1) on cells (influenza A virus A/Puerto Rico/8/34 (H1N1)) (UniProt P06821); test: FACS, MDCK cells infected with A/Puerto Rico/8/34
[12] = molecular target: M2 protein on influenza A/Puerto Rico/8/34 (H1N1) virus particles (influenza A virus A/Puerto Rico/8/34 (H1N1)) (UniProt P06821); test: ELISA, purified A/Puerto Rico/8/34 virus coated at 10 µg/ml
[13] = molecular target: M2 protein of influenza A/Puerto Rico/8/34 (H1N1) on cells (influenza A virus A/Puerto Rico/8/34 (H1N1)) (UniProt P06821); test: FACS, transfected HEK293, 1 µg/ml [D00006 FIG. 3C-1]
[14] = molecular target: M2 protein of influenza A/Puerto Rico/8/34 (H1N1) on cells (influenza A virus A/Puerto Rico/8/34 (H1N1)) (UniProt P06821); test: FMAT images, MDCK cells infected with A/PR/8, crude supernatant
[15] = molecular target: M2 protein of influenza A/Puerto Rico/8/34 (H1N1) on cells (influenza A virus A/Puerto Rico/8/34 (H1N1)) (UniProt P06821); test: FMAT on MDCK cells infected with A/PR/8/32 (so in the source), crude supernatant
[16] = molecular target: M2 protein on influenza A/Puerto Rico/8/34 (H1N1) virus particles (influenza A virus A/Puerto Rico/8/34 (H1N1)) (UniProt P06821); test: ELISA on A/PR/8 virus, normalised to 8i10 at 10 µg/ml [D00002 FIG. 2B]

Measured: binding

B1: 8I10 (antibody, V domains shown)
VH: QVQLQESGPGLVKPSETLSLTCTVSGSSISNYYWSWIRQSPGKGLEWIGFIYYGGNTKYNPSLKSRVTISQDTSKSQVSLTMSSVTAAESAVYFCARASCSGGYCILDYWGQGTLVTVS
VL: DIQMTQSPSSLSASVGDRVTITCRASQNIYKYLNWYQQRPGKAPKGLISAASGLQSGVPSRFSGSGSGTDFTLTITSLQPEDFATYYCQQSYSPPLTFGGGTRVEIK
binds: all assays above

B2: 21B15 (antibody, V domains shown)
VH: QVQLQESGPGLVKPSETLSLTCTVSGSSISNYYWSWIRQSPGKGLEWIGFIYYGGNTKYNPSLKSRVTISQDTSKSQVSLTMSSVTAAESAVYFCARASCSGGYCILDYWGQGTLVTVS
VL: DIQVTQSPSSLSASVGDRVTITCRASQNIYKYLNWYQQRPGKAPKGLISAASGLQSGVPSRFSGSGSGTDFTLTITSLQPEDFATYYCQQSYSPPLTFGGGTRVDIK
binds: [2] | [4] | [5] | [7] | [14] | [15]
